PMC10802717

Protein sequences, listed by entry. Tags and fused reporters are not part of them. Lines headed by an entry give the natural chain unless they say otherwise; changes in a name come on top.
UniProt Q00987: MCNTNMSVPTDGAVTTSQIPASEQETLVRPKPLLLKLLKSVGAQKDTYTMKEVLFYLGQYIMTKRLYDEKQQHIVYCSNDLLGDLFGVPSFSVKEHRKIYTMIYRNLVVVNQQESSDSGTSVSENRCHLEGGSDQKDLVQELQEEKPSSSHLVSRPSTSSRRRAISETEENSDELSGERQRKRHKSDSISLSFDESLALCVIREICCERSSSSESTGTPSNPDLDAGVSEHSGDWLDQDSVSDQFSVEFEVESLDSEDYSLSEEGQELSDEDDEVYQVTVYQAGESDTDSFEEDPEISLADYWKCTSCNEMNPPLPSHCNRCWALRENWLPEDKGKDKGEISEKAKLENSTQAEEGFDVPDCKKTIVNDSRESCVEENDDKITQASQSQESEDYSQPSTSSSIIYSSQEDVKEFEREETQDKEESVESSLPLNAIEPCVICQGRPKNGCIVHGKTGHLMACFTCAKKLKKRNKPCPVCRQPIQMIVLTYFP

Biological target: T1, endogenous TRIM26 (human (endogenous in HCT116)) (UniProt Q12899)
T1 sequence: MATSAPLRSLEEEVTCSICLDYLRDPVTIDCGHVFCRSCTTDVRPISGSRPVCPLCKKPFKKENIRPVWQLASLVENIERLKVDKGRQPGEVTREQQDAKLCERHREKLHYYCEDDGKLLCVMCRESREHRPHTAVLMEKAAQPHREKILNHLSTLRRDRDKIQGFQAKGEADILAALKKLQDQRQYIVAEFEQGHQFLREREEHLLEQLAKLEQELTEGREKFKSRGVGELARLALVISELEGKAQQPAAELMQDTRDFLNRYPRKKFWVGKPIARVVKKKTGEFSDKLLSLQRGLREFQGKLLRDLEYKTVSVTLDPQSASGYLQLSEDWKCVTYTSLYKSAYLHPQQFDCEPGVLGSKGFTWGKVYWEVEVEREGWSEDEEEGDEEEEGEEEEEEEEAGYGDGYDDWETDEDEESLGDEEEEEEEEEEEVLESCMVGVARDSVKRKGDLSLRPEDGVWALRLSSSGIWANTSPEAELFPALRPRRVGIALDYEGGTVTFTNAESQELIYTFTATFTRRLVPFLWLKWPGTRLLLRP
Experiment: co-IP; HCT116 p53+/+ lysate, anti-TRIM26 antibody against non-specific IgG, then Western blot; 4°C; lysis buffer 50 mM Tris/HCl pH 7.5, 0.5% NP-40, 1 mM EDTA, 150 mM NaCl, 1 mM DTT

endogenous MDM2 (from UniProt Q00987) (enzyme)
binding: binds

Results are given in words; binding and its absence hold for the method and conditions named. In cells and extracts the contact can be indirect. Binding calls can cover weak binding; strength is not graded here.
